This is an account of results in US5506207A (The Salk Institute for Biological Studies, priority 1994, dated 1996).

The nature of this data set: general procedure: Boc solid-phase peptide synthesis; MBHA resin (0.76 mM/g); DCC; DIC. Particulars: whole synthesis, CZE and RP-HPLC with aqueous TEAP buffer plus acetonitrile, scale of the general procedure about 3 grams of MBHA resin.

Take “[Ac-β-D-2NAL^1, (4Cl)D-Phe^2, D-3PAL^3, Aph(Gly)(atz)^5, D-Aph(Gly)(atz)^6, ILys^8, D-Ala^10 ]-GnRH”: the “final HPLC purity” value was “about 97%-98%”.
